{"source": "patent US8546392B2", "about": "“17Beta-hydroxysteroid dehydrogenase type 1 inhibitors for the treatment of hormone-related diseases” (Universitaet des Saarlandes, priority 2008, dated 2013)", "key": {"[1]": {"conditions": "rat, pH 7.4"}, "[2]": {"experiment": "Test for metabolic stability, liver microsomes", "conditions": "rat liver microsomes"}}, "note": "Read-outs that look alike come from different tables or passages of the source."}
{"smiles": "CN1C(=O)CN=C(c2ccccc2)c2cc(Cl)ccc21", "note": "[diazepam]", "values": [{"measurement": "Slope (−k)", "setting": "[1]", "value": "−0.017"}]}
{"smiles": "CN(C)CCOC(c1ccccc1)c1ccccc1", "note": "[diphenhydramine, reference compound]", "values": [{"measurement": "Slope (−k)", "setting": "[2]", "value": "−0.102"}]}
